Patent publication US20090143279A1 (priority 2007, published 2009)

System: mtOXPHOS transcripts
Assay type: cell-based, mouse

## CCOC(=O)N1CCC(=C2c3ccc(Cl)cc3CCc3cccnc32)CC1 [loratadine]
  mitoOX: −0.499
